All entries are inconclusive by the source's own rule. Clear calls are listed elsewhere. Rule for the calls: active = hit-call score of the fitted dose curve at least 0.9, where 1 is the maximum; inconclusive = response in the unintended direction; inactive = score below 0.9.
Target: human Retinoic Acid Receptor beta (RARb), RARB (gene 5915) (UniProt P10826)
Experiment: ATG_RARb_TRANS: Attagene TRANS-FACTORIAL HepG2 Assay for human Retinoic Acid Receptor beta (AID 2283004)
Procedure: ATG_TRANS is a cell-based, multiplexed-readout assay that uses HepG2, a human liver cell line, with measurements taken at 24 hours after chemical dosing in a 24-well plate.ATG_RARb_TRANS is one of 30 assay component(s) measured or calculated from the ATG_TRANS assay. It is designed to make measurements of mRNA induction, a form of inducible reporter, as detected with fluorescence intensity signals by Reverse transcription polymerase chain reaction (RT-PCR) and Capillary electrophoresis technology.Data from the assay component ATG_RARb_TRANS was analyzed into 1 assay endpoint. This assay endpoint, ATG_RARb_TRANS, was analyzed in the positive analysis fitting direction relative to DMSO as the negative control and baseline of activity. Using a type of inducible reporter, measures of mRNA for gain-of-signal activity can be used to understand the reporter gene at the transcription factor-level as they relate to the gene RARB. Furthermore, this assay endpoint can be referred to as a primary readout, because this assay has produced multiple assay endpoints where this one serves a reporter gene function. To generalize the intended target to other relatable targets, this assay endpoint is annotated to the nuclear receptor intended target family, where the subfamily is non-steroidal.
Human liver HepG2 cells are transiently transfected with multiple reporter transcription units (MRTUs) in 6-well plates using FuGene 6 reagent (Roche; 3 ml FuGene/1 mg DNA). The MRTU constructs are regulated by a cis-regulating element (promoter). […] A major difference between the CIS and TRANS system is that in CIS activities of endogenous TFs are measured, whereas the TRANS assay evaluates changes in activities of exogenous, chimeric NR-Gal4 proteins. […] At the end of 24 hour incubation, total RNA was isolated using TriZol reagent (Invitrogen). The isolated RNA is then reverse-transcribed using oligo(dT) primer and Mo-MLV reverse transcriptase (Invitrogen) with DNAse I (Ambion) treatment for 30 min. The one-tenth of the produced cDNA was amplified by PCR using Taq DNA polymerase (Invitrogen) and two reporter sequence-specific primers. The PCR products were fluorescently labeled by primer extension with 6-arboxyfluorescein (6-FAM) 5'-labeled reporter sequence-specific primer (2 min at 95 C, 20 s at 68 C and 10 min at 72 C) and these products were digested with 5U of HpaI (New England Biolabs) for 2h at 37 C. The fragments were purified using Qiaquick PCR columns (Qiagen), analyzed on an ABI 3130xL genetic analyzer (Applied Biosystems) with peak positions identified by using a set of X-rhodamine (ROX)-labeled MapMarker1000 molecular weight standards (BioVentures). The raw capillary electrophoresis data was processed using Attagraph software (Attagene).

The chains behind the UniProt entries cited, without tags or fusion partners.
UniProt P10826, whole entry: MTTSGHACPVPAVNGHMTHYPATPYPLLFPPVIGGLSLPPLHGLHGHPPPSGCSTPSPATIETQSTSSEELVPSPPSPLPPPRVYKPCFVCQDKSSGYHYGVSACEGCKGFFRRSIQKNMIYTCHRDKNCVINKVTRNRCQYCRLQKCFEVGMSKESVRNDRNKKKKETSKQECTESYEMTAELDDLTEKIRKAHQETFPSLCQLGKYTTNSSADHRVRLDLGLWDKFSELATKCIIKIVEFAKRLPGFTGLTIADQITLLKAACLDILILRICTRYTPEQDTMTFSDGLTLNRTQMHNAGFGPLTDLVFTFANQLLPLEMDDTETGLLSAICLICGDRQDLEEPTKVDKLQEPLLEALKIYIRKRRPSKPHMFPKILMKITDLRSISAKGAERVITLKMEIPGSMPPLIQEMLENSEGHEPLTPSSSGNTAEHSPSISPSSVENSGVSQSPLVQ

Compound	outcome	AC50
ClP(Cl)c1ccccc1	inconclusive	–
CN(C)CCCl	inconclusive	–
CN(C(=O)Cc1cccc2occc12)[C@H]1CC[C@@]2(CCCO2)C[C@@H]1N1CCCC1	inconclusive	–
Cc1ccc([N+](=O)[O-])c([N+](=O)[O-])c1	–	inconclusive: 41.3 µM
N#CBr	inconclusive	–
COP(C)(=O)OC	–	inconclusive: 1.81 µM
CC(C)OP(C)(=O)OC(C)C	inconclusive	–
Cc1cccc([N+](=O)[O-])c1[N+](=O)[O-]	–	inconclusive: 41.6 µM
Cc1cc([N+](=O)[O-])cc([N+](=O)[O-])c1O	inconclusive	–
COc1ccc([N+](=O)[O-])cc1[N+](=O)[O-]	inconclusive	–
